Values of other authors in US20150087671A1, “LOW BURST SUSTAINED RELEASE LIPOPHILIC AND BIOLOGIC AGENT COMPOSITIONS” (Micell Technologies, Inc., priority 2012, published 2015).
At least one structure is not confirmed: it was looked up by name or label, or the drawing left a doubt.

Test system: cardiac allograft
Conditions: oral dose 4.9 mg/kg/day, rat

## CO[C@H]1C[C@@H]2CC[C@@H](C)[C@@](O)(O2)C(=O)C(=O)N2CCCC[C@H]2C(=O)O[C@H]([C@H](C)C[C@@H]2CC[C@@H](O)[C@H](OC)C2)CC(=O)[C@H](C)/C=C(\C)[C@@H](O)[C@@H](OC)C(=O)[C@H](C)C[C@H](C)/C=C/C=C/C=C/1C [Rapamycin, rapamycin]
  rats treated with prolonged allograft survival: 70%
